Laboratory results as given in US7132258.
No constants are given. Whether binding was seen depends on the method and setting. Some binding calls cover weakened binding; strength is not graded here.

Sequences of proteins named here, by UniProt entry; tags and fusion partners are left off. A change or cut given only in a name is not applied to a line headed by its entry.
UniProt Q9Y6Q9: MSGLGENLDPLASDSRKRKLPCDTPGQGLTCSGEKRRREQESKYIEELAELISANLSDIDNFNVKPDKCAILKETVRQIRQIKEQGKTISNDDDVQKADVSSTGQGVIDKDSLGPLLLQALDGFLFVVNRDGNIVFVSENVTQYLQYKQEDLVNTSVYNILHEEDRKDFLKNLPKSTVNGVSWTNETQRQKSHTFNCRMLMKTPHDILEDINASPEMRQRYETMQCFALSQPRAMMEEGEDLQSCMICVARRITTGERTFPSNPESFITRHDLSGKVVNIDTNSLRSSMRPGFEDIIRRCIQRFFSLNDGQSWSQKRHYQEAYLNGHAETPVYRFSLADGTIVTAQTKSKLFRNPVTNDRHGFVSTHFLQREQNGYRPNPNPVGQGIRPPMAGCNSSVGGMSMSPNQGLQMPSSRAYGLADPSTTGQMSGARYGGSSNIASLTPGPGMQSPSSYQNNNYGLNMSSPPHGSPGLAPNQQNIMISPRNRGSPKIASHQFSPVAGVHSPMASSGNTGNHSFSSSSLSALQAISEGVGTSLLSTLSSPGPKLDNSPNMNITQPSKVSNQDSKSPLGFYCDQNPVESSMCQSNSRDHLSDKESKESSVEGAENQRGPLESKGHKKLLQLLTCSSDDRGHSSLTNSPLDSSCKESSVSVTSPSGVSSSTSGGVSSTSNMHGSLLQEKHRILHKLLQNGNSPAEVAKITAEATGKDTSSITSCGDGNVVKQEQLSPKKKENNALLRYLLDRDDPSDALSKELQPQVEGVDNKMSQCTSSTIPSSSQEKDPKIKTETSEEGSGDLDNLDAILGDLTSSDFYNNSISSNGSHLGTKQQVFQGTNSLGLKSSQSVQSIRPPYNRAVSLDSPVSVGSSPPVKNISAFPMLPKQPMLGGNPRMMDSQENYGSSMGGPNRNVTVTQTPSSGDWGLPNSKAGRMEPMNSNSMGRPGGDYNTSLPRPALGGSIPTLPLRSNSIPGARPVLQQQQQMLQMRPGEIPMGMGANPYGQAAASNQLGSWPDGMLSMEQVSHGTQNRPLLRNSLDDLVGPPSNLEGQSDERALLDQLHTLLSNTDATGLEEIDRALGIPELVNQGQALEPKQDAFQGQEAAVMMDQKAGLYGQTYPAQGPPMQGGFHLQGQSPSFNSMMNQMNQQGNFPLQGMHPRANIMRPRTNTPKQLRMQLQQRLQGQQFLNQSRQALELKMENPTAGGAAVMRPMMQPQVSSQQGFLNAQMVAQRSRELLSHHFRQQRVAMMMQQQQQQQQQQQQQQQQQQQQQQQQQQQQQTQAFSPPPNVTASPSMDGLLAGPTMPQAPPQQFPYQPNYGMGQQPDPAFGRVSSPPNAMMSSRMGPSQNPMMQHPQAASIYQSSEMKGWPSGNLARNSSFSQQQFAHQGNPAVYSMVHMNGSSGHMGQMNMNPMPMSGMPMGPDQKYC

Biological target: T1, 35S-labeled hTRβ (in vitro translated; printed hTRp) (human) (UniProt P10828)
T1 sequence (looked up): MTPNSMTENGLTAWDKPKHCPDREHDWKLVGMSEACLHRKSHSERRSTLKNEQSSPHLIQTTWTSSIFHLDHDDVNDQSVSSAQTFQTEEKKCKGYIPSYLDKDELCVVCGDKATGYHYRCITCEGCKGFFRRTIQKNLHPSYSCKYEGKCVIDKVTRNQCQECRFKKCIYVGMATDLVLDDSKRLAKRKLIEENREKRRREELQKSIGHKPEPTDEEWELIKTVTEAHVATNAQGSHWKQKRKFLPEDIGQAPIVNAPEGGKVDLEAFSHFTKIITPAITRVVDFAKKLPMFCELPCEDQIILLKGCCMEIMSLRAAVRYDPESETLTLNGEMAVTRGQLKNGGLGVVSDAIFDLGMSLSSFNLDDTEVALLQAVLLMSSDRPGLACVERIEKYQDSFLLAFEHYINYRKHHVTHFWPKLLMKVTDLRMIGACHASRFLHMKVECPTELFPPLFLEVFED
Assay: far-Western, GST-RAC3-RID on the filter, 35S-labeled receptor, 1 µM T3

- binding: binds
Substance: GST-RAC3-RID fusion (from UniProt Q9Y6Q9 613-752)
